Laboratory results taken from PMC5620043, “A general mechanism of ribosome dimerization revealed by single-particle cryo-electron microscopy” (Nature Communications, 2017).
No constants are given. Whether binding was seen depends on the method and setting. Some entries that bind do so weakly or less than the wild type.

Sequences of proteins named here, by UniProt entry; tags and fusion partners are left off.
UniProt A2RNV0: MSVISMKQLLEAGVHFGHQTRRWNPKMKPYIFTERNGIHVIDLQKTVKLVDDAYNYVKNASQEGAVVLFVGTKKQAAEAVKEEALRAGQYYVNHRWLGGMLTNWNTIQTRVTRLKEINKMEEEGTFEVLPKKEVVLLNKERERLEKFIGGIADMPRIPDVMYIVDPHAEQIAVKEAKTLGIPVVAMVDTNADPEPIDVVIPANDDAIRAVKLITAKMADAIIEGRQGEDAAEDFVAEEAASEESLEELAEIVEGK

Tests used:
[1] = molecular target: hibernation promotion factor HPF^long of Lactococcus lactis, as bound in native 100S ribosomes (Lactococcus lactis (subsp. cremoris, MG1363)) (UniProt A2RIX0); assay: cryo-EM structure; native 100S ribosome dimers from L. lactis MG1363 (sucrose gradient fractions, buffer I: 20 mM Tris-HCl pH 7.6, 15 mM magnesium acetate, 100 mM ammonium acetate, 6 mM 2-mercaptoethanol); 50S-masked map at 5.6 Å; 100S map rebuilt from two copies of it to model the interface
[2] = molecular target: ribosomal protein uS2 of the L. lactis 30S subunit (Lactococcus lactis (subsp. cremoris, MG1363)) (UniProt A2RNV0); assay: as above

B1: HPF^long from L. lactis with N-terminal Strep-tag (natural protein, UniProt A2RIX0 1-185, looked up)
chain: MIKFNIRGENVEVTDAIRAYVEDKIGKLDKYFNDGHEVTAYVNLKVYTEKRAKVEVTLPAKNVTLRAEDTSQDMYSSIDFVEEKLERQIRKYKTRMNRKPRNAVPTGQVFGDEFAPLDTTDEVAEDHVDIVRTKHVALKPMDAEEAVLQMDMLGHDFYVFTDADSNGTHVVYRRTDGRYGLIETE
notes: HPF^long of Lactococcus lactis, 185 residues, calculated monomer mass 21.3 kDa; also called purified HPF^long; source: overexpressed in L. lactis NZ9000, purified on a Strep-tactin Sepharose column
- binding [1]: binds
- binding [2]: binds
